# Measured values as given in PubChem BioAssay AID2685 (National Center for Advancing Translational Sciences (NCATS), 2010).
# This is one part of the list. Further columns of the screen follow, without active or inactive calls. The list favours compounds with an active or inconclusive main result. Potencies come from curve fits of mixed quality, noted in brackets.
# Test: qHTS Assay for Lipid Storage Modulators in Drosophila S3 Cells;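 for cell number change: cells counted by Cell Tracker Red CMTPX staining in the red channel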
# Conditions: BODIPY lipid droplet fluorescence, 18-24 h; for cell number change: measured here: cell count max response, cells fed with added oleic acid
# Procedure, shortened: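 Laser-scanning cytometry quantifies lipid droplet accumulation (500–530 nm total intensity; droplet/cell object ratio) in oleic acid-fed (400 uM added) Drosophila S3 cells treated with a concentration series. 20 uM Triacsin C defined 100% inhibition.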
# [1] = measured here: lipid fluorescence (Fed channel) AC50, cells fed with added oleic acid
# [2] = measured here: cell number channel AC50, cells fed with added oleic acid
SMILES,cell number change [%],AC50 [1],AC50 [2]
Clc1ccc(-c2cnc3n2CCC3)cc1,-10.2,,
O=C(COC(=O)CCCOc1ccccc1)NNC(=O)c1ccc([N+](=O)[O-])cc1,12.1,,
COc1ccccc1CC(=O)N1CCC(n2nccc2NC(=O)C2CCOC2)CC1 (configuration not stated),-24,"0.291 µM [falling, full curve, poor fit]",
Cc1cc(OCC(=O)N(C)Cc2ccccc2)ccc1Br,-7.72,"29.1 µM [falling, partial curve, poor fit]",
Cc1cc(C(=O)NNC(=O)c2ccc(Cl)cc2)no1,1.42,"0.00517 µM [falling, full curve, poor fit]",
COc1ccc(-c2nc3c(n2O)CCC/C3=N\O)cc1,,"5.8 µM [falling, single point]",
C=CCn1c(SCC(=O)c2cc(C)n(Cc3cccs3)c2C)nnc1-c1ccncc1,11.8,"5.8 µM [rising, full curve]","1.64 µM [rising, partial curve]"
CCc1ccc[n+](-c2nc([O-])sc2C=O)c1,-23.2,,
CC(=O)c1ccc(N2CCN(C(=O)CCS(=O)(=O)c3ccc4c(c3)CCN4C(C)=O)CC2)cc1,1.65,,"0.0731 µM [rising, full curve, poor fit]"
COc1ccc(C)cc1-n1c(SCC(=O)NC2CC2)nc2ccccc2c1=O,-6.74,"0.184 µM [falling, full curve, poor fit]",
O=C(COc1ccccc1)N1c2ccccc2Sc2ccccc21,-8.75,"13 µM [rising, partial curve, poor fit]",
COCCNC(=O)NC(=O)COC(=O)C12CC3CC(CC(NC(C)=O)(C3)C1)C2,3.46,,
Cc1ccc(S(=O)(=O)N(C)c2ccc(OC(=O)c3ccc(=O)[nH]c3)cc2)cc1,-44.9,"4.61 µM [falling, partial curve, poor fit]","25.9 µM [falling, single point]"
Cc1ccnc(Nc2nc(-c3ccccc3)cs2)c1,-12.6,"3.26 µM [falling, full curve, poor fit]",
O=C1CC(SCc2nc3ccccc3[nH]2)C(=O)N1c1ccc(F)c(Cl)c1 (configuration not stated),38.7,,"29.1 µM [rising, single point]"
CCOC(=O)N1CCN(C(=O)C2CCCN(c3ncnc4c3nc3n4CCCCC3)C2)CC1 (configuration not stated),-48.4,"29.1 µM [falling, single point]","32.6 µM [falling, single point]"
Cc1ccc(S(=O)(=O)c2nc(-c3ccccc3Cl)oc2N(C)C)cc1,10.8,"5.17 µM [rising, partial curve]",
COc1ccc(NC(=O)c2cccc(Oc3ccc([N+](=O)[O-])cc3Cl)c2)cc1,-1.93,"32.6 µM [rising, single point]","6.51 µM [rising, single point]"
Cc1c(C(=O)NN2CCOCC2)oc2c1ccc1ccccc12,-17.6,,
CCS(=O)(=O)N1Cc2ccccc2CC1C(=O)Nc1cc(S(C)(=O)=O)ccc1Cl (configuration not stated),25.4,"6.51 µM [rising, partial curve]",
CCCN(C(=O)Cn1ncc2c(=O)oc3ccccc3c21)c1cccc(C)c1,-12.3,"16.4 µM [falling, single point]",

SMILES,cell number change [%],AC50 [1],AC50 [2]
CCOC(=O)c1cn(CC)c2c(ccc3ccccc32)c1=O,-1.1,,
Cc1cc([N+](=O)[O-])nn1CC(=O)Nc1ccc(Cl)cn1,-39.6,,
COc1cc(C=O)ccc1OCCOCCOc1ccccc1Cl,-35.9,,"7.31 µM [falling, partial curve, poor fit]"
COc1ccc(C(=O)Nc2ccc3ccccc3c2)cc1OC,-22,,
N#Cc1ccc(-c2nc3ccccc3c(=O)n2O)cc1,-39.5,"5.17 µM [falling, partial curve]","7.31 µM [falling, partial curve]"
Cc1ccc(S(=O)(=O)N(C)C)cc1NC(=S)N1CCN(Cc2ccc3c(c2)OCO3)CC1,63.6,,"9.2 µM [rising, partial curve, poor fit]"
Cc1onc(-c2c(F)cccc2Cl)c1C(=O)OCC(=O)NC(=O)NCC(C)C,85.4,,
CN(C(=O)c1ccccc1)C1c2c(ccc3ccccc23)OCC1CO (configuration not stated),96.4,"6.51 µM [falling, single point]",
COc1ccccc1NC(=O)CSc1nnc(C2CCCCC2)o1,36.8,,"29.1 µM [rising, single point]"
N#Cc1cccc(C(=O)OCC(=O)N2CCCc3ccccc32)c1,-19.6,"11.6 µM [falling, partial curve, poor fit]",
CSc1ccccc1OCc1cc(C(=O)N(C)C(C)c2nc(C)cs2)no1 (configuration not stated),-9.63,,
O=C(OCc1ccccc1)c1cc(S(=O)(=O)N2CCCCC2)ccc1N1CCOCC1,-28.9,"29.1 µM [falling, single point]",
Cc1ccc(-c2nnc(SCC(N)=O)nc2-c2ccc(C)cc2)cc1,2.25,,
COc1ccc(Cl)cc1S(=O)(=O)N(C)CC(=O)NCc1ccccn1,26.5,,
Cc1onc(-c2ccccc2)c1C(=O)c1c[nH]c(C(=O)NCc2ccccn2)c1,-11.7,,
O=C(NCCCn1ccnc1)/C(=C\c1cccnc1)NC(=O)c1ccco1,-51,,"29.1 µM [falling, single point]"
Cc1cccc(NC(=O)C(C)SCc2nc3sc(C)c(C)c3c(=O)[nH]2)n1 (configuration not stated),-5.45,,"0.206 µM [rising, full curve]"
O=C(CCNC(=O)c1ccccc1)NCC1CCCCC1,-20.6,,
CCN(CCNC(=O)c1cccc(N2CCCC2=O)c1)c1ccccc1,109,"1.64 µM [rising, partial curve]","6.51 µM [rising, partial curve, poor fit]"
O=C(NN1C(=O)NC2(CCCCC2)C1=O)c1cc(F)cc(F)c1,14.5,,"0.517 µM [falling, single point]"
CCOc1ccc(NC(=O)C2CC(=O)N(c3ccc4c(c3)OCCO4)C2)cc1OCC (configuration not stated),37,"2.91 µM [rising, full curve]","2.59 µM [rising, partial curve, poor fit]"

SMILES,cell number change [%],AC50 [1],AC50 [2]
CC1CN(C(=O)COC(=O)Cc2ccc(Cl)cc2)CC(C)O1 (configuration not stated),0.778,"7.31 µM [falling, partial curve, poor fit]",
Cc1ccc(S(=O)(=O)N(CC(=O)Nc2cc(C)ccc2C)C(=O)N2CCN(C)CC2)cc1,-13.7,,
O=C1C2C3C=CC(CNS(=O)(=O)c4ccccc4[N+](=O)[O-])(O3)C2C(=O)N1c1ccccc1 (configuration not stated),56.7,"29.1 µM [rising, single point]","29.1 µM [rising, single point]"
COc1ccccc1-c1nnc(SCC(=O)Nc2ccc(S(N)(=O)=O)cc2)n1C,,,"0.82 µM [rising, single point]"
COCCN(CCOC)c1ncnc2c1cnn2-c1ccc(Cl)cc1,,"4.61 µM [rising, single point]","6.51 µM [rising, single point]"
COC(=O)c1c(C)oc(C)c1S(=O)(=O)NC(C)(C)C,-8.24,"0.164 µM [falling, full curve, poor fit]",
COc1ccc(S(=O)(=O)NCc2ccccn2)cc1Cl,,,"0.164 µM [falling, full curve, poor fit]"
Cc1cc(NC(=O)c2cc(-c3ccncc3)nc3c(C)cccc23)no1,4.38,"0.0231 µM [rising, full curve, poor fit]",
COc1ccccc1OCC(=O)NC1CCSc2ccccc21 (configuration not stated),15.2,"25.9 µM [rising, partial curve]","0.517 µM [falling, full curve]"
OC(CNc1ncnc2sccc12)c1ccccc1 (configuration not stated),18.9,"29.1 µM [rising, single point]",
NC(=O)c1ccc(NC(=O)COC(=O)/C=C/c2cccs2)cc1,60.2,"0.00517 µM [falling, full curve, poor fit]","0.0058 µM [falling, full curve, poor fit]"
COc1ccc(CCN(Cc2ccccn2)C(=S)Nc2ccc(C)cc2)cc1OC,,"0.0092 µM [rising, full curve, poor fit]","0.0058 µM [rising, full curve, poor fit]"
COc1cc(NS(=O)(=O)c2ccc(NC(=O)CCC(=O)O)cc2)nc(OC)n1,-9.01,"0.58 µM [rising, single point]","0.651 µM [rising, single point]"
CCc1nnc(NC(=O)CCS(=O)(=O)Cc2ccccc2)s1,2.56,,
Cc1cccc(C)c1Nc1nnc(SCc2nc3ccccc3c(=O)[nH]2)s1,-9.24,"29.1 µM [falling, single point]",
Cc1cccc2c(N=NC(=O)c3ccc(NS(=O)(=O)c4cccs4)cc3)c(O)[nH]c12,-98.7,"3.26 µM [falling, full curve]","18.4 µM [falling, partial curve]"
O=S(=O)(NCC(c1ccco1)N1CCN(c2ccc(F)cc2)CC1)c1ccc2c(c1)OCCO2 (configuration not stated),-40.5,"0.13 µM [falling, full curve]","29.1 µM [falling, single point]"
CCCC(=O)Nc1cc(OC)c(C(=O)OC)cc1Cl,-8.92,"6.51 µM [rising, single point]",
O=C1CCCC2=C1C(c1ccccc1)NC(=S)N2 (configuration not stated),-141,"29.1 µM [falling, single point]","29.1 µM [falling, single point]"

# 3 entries from above in a different format:
SMILES | cell number change [%] | AC50 [1] | AC50 [2]
O=C1C2C3C=CC(CNS(=O)(=O)c4ccccc4[N+](=O)[O-])(O3)C2C(=O)N1c1ccccc1 (configuration not stated) | 56.7 | 29.1 µM [rising, single point] | 29.1 µM [rising, single point]
COc1cc(NS(=O)(=O)c2ccc(NC(=O)CCC(=O)O)cc2)nc(OC)n1 | -9.01 | 0.58 µM [rising, single point] | 0.651 µM [rising, single point]
O=S(=O)(NCC(c1ccco1)N1CCN(c2ccc(F)cc2)CC1)c1ccc2c(c1)OCCO2 (configuration not stated) | -40.5 | 0.13 µM [falling, full curve] | 29.1 µM [falling, single point]
